Test system: mSWI/SNF complexes
Experiment: mSWI/SNF complex purification with HA-tagged baits and mass spectrometry (peptide counts)
Set-up: species or system human
[1] = 293_HA-BRD7: HA-BRD7 bait purification, total peptide count per co-purified protein
[2] = 293_HA-BRD7: HA-BRD7 bait purification, unique peptide count per co-purified protein
[3] = total peptide count of the co-purified protein, 293_HA-BRD9 (HA-BRD9 bait, mass spectrometry), Table 3b
[4] = unique peptide count of the co-purified protein, 293_HA-BRD9 (HA-BRD9 bait, mass spectrometry), Table 3b

Row | Molecule | Total [1] | Unique [2] | Total [3] | Unique [4]
1 | HADHB (protein, UniProt P55084 34-474, looked up) Trifunctional enzyme subunit …: AAPAVQTKTKKTLAKPNIRNVVVVDGVRTPFLLSGTSYKDLMPHDLARAALTGLLHRTSVPKEVVDYIIFGTVIQEVKTSNVAREAALGAGFSDKTPAHTVTMACISANQAMTTGVGLIASGQCDVIVAGGVELMSDVPIRHSRKMRKLMLDLNKAKSMGQRLSLISKFRFNFLAPELPAVSEFSTSETMGHSADRLAAAFAVSRLEQDEYALRSHSLAKKAQDEGLLSDVVPFKVPGKDTVTKDNGIRPSSLEQMAKLKPAFIKPYGTVTAANSSFLTDGASAMLIMAEEKALAMGYKPKAYLRDFMYVSQDPKDQLLLGPTYATPKVLEKAGLTMNDIDAFEFHEAFSGQILANFKAMDSDWFAENYMGRKTKVGLPPLEKFNNWGGSLSLGHPFGATGCRLVMAAANRLRKEGGQYGLVAACAAGGQGHAMIVEAYPK | 8 | 8 | 1 | 1
2 | GDPD3 (protein, UniProt Q7L5L3 1-318, looked up) Lysophospholipase D GDPD3: MSLLLYYALPALGSYAMLSIFFLRRPHLLHTPRAPTFRIRLGAHRGGSGELLENTMEAMENSMAQRSDLLELDCQLTRDRVVVVSHDENLCRQSGLNRDVGSLDFEDLPLYKEKLEVYFSPGHFAHGSDRRMVRLEDLFQRFPRTPMSVEIKGKNEELIREIAGLVRRYDRNEITIWASEKSSVMKKCKAANPEMPLSFTISRGFWVLLSYYLGLLPFIPIPEKFFFCFLPNIINRTYFPFSCSCLNQLLAVVSKWLIMRKSLIRHLEERGVQVVFWCLNEESDFEAAFSVGATGVITDYPTALRHYLDNHGPAARTS |  |  | 1 | 1
3 | SMC3 (protein, UniProt Q9UQE7 1-1217, looked up) Structural maintenance of …: MYIKQVIIQGFRSYRDQTIVDPFSSKHNVIVGRNGSGKSNFFYAIQFVLSDEFSHLRPEQRLALLHEGTGPRVISAFVEIIFDNSDNRLPIDKEEVSLRRVIGAKKDQYFLDKKMVTKNDVMNLLESAGFSRSNPYYIVKQGKINQMATAPDSQRLKLLREVAGTRVYDERKEESISLMKETEGKREKINELLKYIEERLHTLEEEKEELAQYQKWDKMRRALEYTIYNQELNETRAKLDELSAKRETSGEKSRQLRDAQQDARDKMEDIERQVRELKTKISAMKEEKEQLSAERQEQIKQRTKLELKAKDLQDELAGNSEQRKRLLKERQKLLEKIEEKQKELAETEPKFNSVKEKEERGIARLAQATQERTDLYAKQGRGSQFTSKEERDKWIKKELKSLDQAINDKKRQIAAIHKDLEDTEANKEKNLEQYNKLDQDLNEVKARVEELDRKYYEVKNKKDELQSERNYLWREENAEQQALAAKREDLEKKQQLLRAATGKAILNGIDSINKVLDHFRRKGINQHVQNGYHGIVMNNFECEPAFYTCVEVTAGNRLFYHIVDSDEVSTKILMEFNKMNLPGEVTFLPLNKLDVRDTAYPETNDAIPMISKLRYNPRFDKAFKHVFGKTLICRSMEVSTQLARAFTMDCITLEGDQVSHRGALTGGYYDTRKSRLELQKDVRKAEEELGELEAKLNENLRRNIERINNEIDQLMNQMQQIETQQRKFKASRDSILSEMKMLKEKRQQSEKTFMPKQRSLQSLEASLHAMESTRESLKAELGTDLLSQLSLEDQKRVDALNDEIRQLQQENRQLLNERIKLEGIITRVETYLNENLRKRLDQVEQELNELRETEGGTVLTATTSELEAINKRVKDTMARSEDLDNSIDKTEAGIKELQKSMERWKNMEKEHMDAINHDTKELEKMTNRQGMLLKKKEECMKKIRELGSLPQEAFEKYQTLSLKQLFRKLEQCNTELKKYSHVNKKALDQFVNFSEQKEKLIKRQEELDRGYKSIMELMNVLELRKYEAIQLTFKQVSKNFSEVFQKLVPGGKATLVMKKGDVEGSQSQDEGEGSGESERGSGSQSSVPSVDQFTGVGIRVSFTGKQGEMREMQQLSGGQKSLVALALIFAIQKCDPAPFYLFDEIDQALDAQHRKAVSDMIMELAVHAQFITTTFRPELLESADKFYGVKFRNKVSHIDVITAEMAKDFVEDDTTHG |  |  | 1 | 1
4 | LMNA (protein, UniProt P02545 1-661, looked up) Prelamin-A/C: METPSQRRATRSGAQASSTPLSPTRITRLQEKEDLQELNDRLAVYIDRVRSLETENAGLRLRITESEEVVSREVSGIKAAYEAELGDARKTLDSVAKERARLQLELSKVREEFKELKARNTKKEGDLIAAQARLKDLEALLNSKEAALSTALSEKRTLEGELHDLRGQVAKLEAALGEAKKQLQDEMLRRVDAENRLQTMKEELDFQKNIYSEELRETKRRHETRLVEIDNGKQREFESRLADALQELRAQHEDQVEQYKKELEKTYSAKLDNARQSAERNSNLVGAAHEELQQSRIRIDSLSAQLSQLQKQLAAKEAKLRDLEDSLARERDTSRRLLAEKEREMAEMRARMQQQLDEYQELLDIKLALDMEIHAYRKLLEGEEERLRLSPSPTSQRSRGRASSHSSQTQGGGSVTKKRKLESTESRSSFSQHARTSGRVAVEEVDEEGKFVRLRNKSNEDQSMGNWQIKRQNGDDPLLTYRFPPKFTLKAGQVVTIWAAGAGATHSPPTDLVWKAQNTWGCGNSLRTALINSTGEEVAMRKLVRSVTVVEDDEDEDGDDLLHHHHGSHCSSSGDPAEYNLRSRTVLCGTCGQPADKASASGSGAQVGGPISSGSSASSVTVTRSYRSVGGSGGGSFGDNLVTRSYLLGNSSPRTQSPQNC | 13 | 13 | 1 | 1
5 | WAPAL (protein, UniProt Q7Z5K2 1-1190, looked up) Wings apart-like protein …: MTSRFGKTYSRKGGNGSSKFDEVFSNKRTTLSTKWGETTFMAKLGQKRPNFKPDIQEIPKKPKVEEESTGDPFGFDSDDESLPVSSKNLAQVKCSSYSESSEAAQLEEVTSVLEANSKISHVVVEDTVVSDKCFPLEDTLLGKEKSTNRIVEDDASISSCNKLITSDKVENFHEEHEKNSHHIHKNADDSTKKPNAETTVASEIKETNDTWNSQFGKRPESPSEISPIKGSVRTGLFEWDNDFEDIRSEDCILSLDSDPLLEMKDDDFKNRLENLNEAIEEDIVQSVLRPTNCRTYCRANKTKSSQGASNFDKLMDGTSQALAKANSESSKDGLNQAKKGGVSCGTSFRGTVGRTRDYTVLHPSCLSVCNVTIQDTMERSMDEFTASTPADLGEAGRLRKKADIATSKTTTRFRPSNTKSKKDVKLEFFGFEDHETGGDEGGSGSSNYKIKYFGFDDLSESEDDEDDDCQVERKTSKKRTKTAPSPSLQPPPESNDNSQDSQSGTNNAENLDFTEDLPGVPESVKKPINKQGDKSKENTRKIFSGPKRSPTKAVYNARHWNHPDSEELPGPPVVKPQSVTVRLSSKEPNQKDDGVFKAPAPPSKVIKTVTIPTQPYQDIVTALKCRREDKELYTVVQHVKHFNDVVEFGENQEFTDDIEYLLSGLKSTQPLNTRCLSVISLATKCAMPSFRMHLRAHGMVAMVFKTLDDSQHHQNLSLCTAALMYILSRDRLNMDLDRASLDLMIRLLELEQDASSAKLLNEKDMNKIKEKIRRLCETVHNKHLDLENITTGHLAMETLLSLTSKRAGDWFKEELRLLGGLDHIVDKVKECVDHLSRDEDEEKLVASLWGAERCLRVLESVTVHNPENQSYLIAYKDSQLIVSSAKALQHCEELIQQYNRAEDSICLADSKPLPHQNVTNHVGKAVEDCMRAIIGVLLNLTNDNEWGSTKTGEQDGLIGTALNCVLQVPKYLPQEQRFDIRVLGLGLLINLVEYSARNRHCLVNMETSCSFDSSICSGEGDDSLRIGGQVHAVQALVQLFLERERAAQLAESKTDELIKDAPTTQHDKSGEWQETSGEIQWVSTEKTDGTEEKHKKEEEDEELDLNKALQHAGKHMEDCIVASYTALLLGCLCQESPINVTTVREYLPEGDFSIMTEMLKKFLSFMNLTCAVGTTGQKSISRVIEYLEHC |  |  | 1 | 1

Reference: patent US12729225B2, “Non-canonical SWI/SNF complex and uses thereof” (Dana-Farber Cancer Institute, Inc., priority 2018, dated 2026)
